The text below walks through data of paper PMC12795458.

The target in the experiment is DnaN sliding clamp, Gal4 two-hybrid fusion (S. pneumoniae) (UniProt O06672). Description: two-hybrid; Gal4-based PGAD-C1 and PGBD-C1 fusions; yeast PJ69-4a mated with PJ69-4α; growth of diploid cells after 8 or 20 days at 30°C on synthetic complete medium lacking leucine, uracil and histidine (HIS3 reporter); empty-vector controls.

Results are given in words; binding and its absence hold for the method and conditions named. Some binding calls cover weakened binding; strength is not graded here. Tags and fused reporters may be left off the sequences shown.

B1: DnaN sliding clamp, Gal4 two-hybrid fusion (protein, UniProt O06672 1-378)
chain: MIHFSINKNLFLQALNTTKRAISSKNAIPILSTVKIDVTNEGITLIGSNGQISIENFISQKNEDAGLLITSLGSILLEASFFINVVSSLPDVTLDFKEIEQNQIVLTSGKSEITLKGKDSEQYPRIQEISASTPLILETKLLKKIINETAFAASTQESRPILTGVHFVLSQHKELKTVATDSHRLSQKKLTLEKNSDDFDVVIPSRSLREFSAVFTDDIETVEIFFANNQILFRSENISFYTRLLEGNYPDTDRLIPTDFNTTITFNVVNLRQSMERARLLSSATQNGTVKLEIKDGVVSAHVHSPEVGKVNEEIDTDQVTGEDLTISFNPTYLIDSLKALNSEKVTISFISAVRPFTLVPADTDEDFMQLITPVRTN
Take B1: the binding entry was “binds”.
